No constants are given. Whether binding was seen depends on the method and setting. Binding seen in cells or lysates may run through a third protein. These calls come from enrichment with a bait or labelling near it, and not all partners need be listed.
Molecular target: Argonaute 1 (AGO1) (mouse (endogenous in ADSCs)) (UniProt Q8CJG1)
Experiment: affinity purification with mass spectrometry; RISC / AGO1 complex immunoprecipitated from Dicer-deficient ADSCs with or without miR-369 transfection; gel separation, silver staining, LC-MS/MS

Protein sequences, listed by entry. Tags and fused reporters are not part of them.
UniProt O88569: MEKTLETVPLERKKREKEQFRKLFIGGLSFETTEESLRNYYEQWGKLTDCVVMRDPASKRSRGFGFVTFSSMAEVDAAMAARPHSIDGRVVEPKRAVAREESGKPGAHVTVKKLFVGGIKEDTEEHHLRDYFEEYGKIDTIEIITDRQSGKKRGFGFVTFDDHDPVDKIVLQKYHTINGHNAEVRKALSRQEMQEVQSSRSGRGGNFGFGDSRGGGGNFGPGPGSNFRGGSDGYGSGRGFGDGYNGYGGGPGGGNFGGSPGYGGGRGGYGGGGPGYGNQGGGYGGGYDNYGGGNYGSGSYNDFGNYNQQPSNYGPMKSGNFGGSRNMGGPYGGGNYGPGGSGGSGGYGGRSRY

Substance: HNRNPA2B1 (heterogeneous nuclear ribonucleoprotein A2/B1) (from UniProt O88569 1-353)
- binding: binds
